# Results are given in words; binding and its absence hold for the method and conditions named. In cells and extracts the contact can be indirect. Some entries that bind do so weakly or less than the wild type.
# Protein sequences, listed by entry. Tags and fused reporters are not part of them.
# UniProt P42859: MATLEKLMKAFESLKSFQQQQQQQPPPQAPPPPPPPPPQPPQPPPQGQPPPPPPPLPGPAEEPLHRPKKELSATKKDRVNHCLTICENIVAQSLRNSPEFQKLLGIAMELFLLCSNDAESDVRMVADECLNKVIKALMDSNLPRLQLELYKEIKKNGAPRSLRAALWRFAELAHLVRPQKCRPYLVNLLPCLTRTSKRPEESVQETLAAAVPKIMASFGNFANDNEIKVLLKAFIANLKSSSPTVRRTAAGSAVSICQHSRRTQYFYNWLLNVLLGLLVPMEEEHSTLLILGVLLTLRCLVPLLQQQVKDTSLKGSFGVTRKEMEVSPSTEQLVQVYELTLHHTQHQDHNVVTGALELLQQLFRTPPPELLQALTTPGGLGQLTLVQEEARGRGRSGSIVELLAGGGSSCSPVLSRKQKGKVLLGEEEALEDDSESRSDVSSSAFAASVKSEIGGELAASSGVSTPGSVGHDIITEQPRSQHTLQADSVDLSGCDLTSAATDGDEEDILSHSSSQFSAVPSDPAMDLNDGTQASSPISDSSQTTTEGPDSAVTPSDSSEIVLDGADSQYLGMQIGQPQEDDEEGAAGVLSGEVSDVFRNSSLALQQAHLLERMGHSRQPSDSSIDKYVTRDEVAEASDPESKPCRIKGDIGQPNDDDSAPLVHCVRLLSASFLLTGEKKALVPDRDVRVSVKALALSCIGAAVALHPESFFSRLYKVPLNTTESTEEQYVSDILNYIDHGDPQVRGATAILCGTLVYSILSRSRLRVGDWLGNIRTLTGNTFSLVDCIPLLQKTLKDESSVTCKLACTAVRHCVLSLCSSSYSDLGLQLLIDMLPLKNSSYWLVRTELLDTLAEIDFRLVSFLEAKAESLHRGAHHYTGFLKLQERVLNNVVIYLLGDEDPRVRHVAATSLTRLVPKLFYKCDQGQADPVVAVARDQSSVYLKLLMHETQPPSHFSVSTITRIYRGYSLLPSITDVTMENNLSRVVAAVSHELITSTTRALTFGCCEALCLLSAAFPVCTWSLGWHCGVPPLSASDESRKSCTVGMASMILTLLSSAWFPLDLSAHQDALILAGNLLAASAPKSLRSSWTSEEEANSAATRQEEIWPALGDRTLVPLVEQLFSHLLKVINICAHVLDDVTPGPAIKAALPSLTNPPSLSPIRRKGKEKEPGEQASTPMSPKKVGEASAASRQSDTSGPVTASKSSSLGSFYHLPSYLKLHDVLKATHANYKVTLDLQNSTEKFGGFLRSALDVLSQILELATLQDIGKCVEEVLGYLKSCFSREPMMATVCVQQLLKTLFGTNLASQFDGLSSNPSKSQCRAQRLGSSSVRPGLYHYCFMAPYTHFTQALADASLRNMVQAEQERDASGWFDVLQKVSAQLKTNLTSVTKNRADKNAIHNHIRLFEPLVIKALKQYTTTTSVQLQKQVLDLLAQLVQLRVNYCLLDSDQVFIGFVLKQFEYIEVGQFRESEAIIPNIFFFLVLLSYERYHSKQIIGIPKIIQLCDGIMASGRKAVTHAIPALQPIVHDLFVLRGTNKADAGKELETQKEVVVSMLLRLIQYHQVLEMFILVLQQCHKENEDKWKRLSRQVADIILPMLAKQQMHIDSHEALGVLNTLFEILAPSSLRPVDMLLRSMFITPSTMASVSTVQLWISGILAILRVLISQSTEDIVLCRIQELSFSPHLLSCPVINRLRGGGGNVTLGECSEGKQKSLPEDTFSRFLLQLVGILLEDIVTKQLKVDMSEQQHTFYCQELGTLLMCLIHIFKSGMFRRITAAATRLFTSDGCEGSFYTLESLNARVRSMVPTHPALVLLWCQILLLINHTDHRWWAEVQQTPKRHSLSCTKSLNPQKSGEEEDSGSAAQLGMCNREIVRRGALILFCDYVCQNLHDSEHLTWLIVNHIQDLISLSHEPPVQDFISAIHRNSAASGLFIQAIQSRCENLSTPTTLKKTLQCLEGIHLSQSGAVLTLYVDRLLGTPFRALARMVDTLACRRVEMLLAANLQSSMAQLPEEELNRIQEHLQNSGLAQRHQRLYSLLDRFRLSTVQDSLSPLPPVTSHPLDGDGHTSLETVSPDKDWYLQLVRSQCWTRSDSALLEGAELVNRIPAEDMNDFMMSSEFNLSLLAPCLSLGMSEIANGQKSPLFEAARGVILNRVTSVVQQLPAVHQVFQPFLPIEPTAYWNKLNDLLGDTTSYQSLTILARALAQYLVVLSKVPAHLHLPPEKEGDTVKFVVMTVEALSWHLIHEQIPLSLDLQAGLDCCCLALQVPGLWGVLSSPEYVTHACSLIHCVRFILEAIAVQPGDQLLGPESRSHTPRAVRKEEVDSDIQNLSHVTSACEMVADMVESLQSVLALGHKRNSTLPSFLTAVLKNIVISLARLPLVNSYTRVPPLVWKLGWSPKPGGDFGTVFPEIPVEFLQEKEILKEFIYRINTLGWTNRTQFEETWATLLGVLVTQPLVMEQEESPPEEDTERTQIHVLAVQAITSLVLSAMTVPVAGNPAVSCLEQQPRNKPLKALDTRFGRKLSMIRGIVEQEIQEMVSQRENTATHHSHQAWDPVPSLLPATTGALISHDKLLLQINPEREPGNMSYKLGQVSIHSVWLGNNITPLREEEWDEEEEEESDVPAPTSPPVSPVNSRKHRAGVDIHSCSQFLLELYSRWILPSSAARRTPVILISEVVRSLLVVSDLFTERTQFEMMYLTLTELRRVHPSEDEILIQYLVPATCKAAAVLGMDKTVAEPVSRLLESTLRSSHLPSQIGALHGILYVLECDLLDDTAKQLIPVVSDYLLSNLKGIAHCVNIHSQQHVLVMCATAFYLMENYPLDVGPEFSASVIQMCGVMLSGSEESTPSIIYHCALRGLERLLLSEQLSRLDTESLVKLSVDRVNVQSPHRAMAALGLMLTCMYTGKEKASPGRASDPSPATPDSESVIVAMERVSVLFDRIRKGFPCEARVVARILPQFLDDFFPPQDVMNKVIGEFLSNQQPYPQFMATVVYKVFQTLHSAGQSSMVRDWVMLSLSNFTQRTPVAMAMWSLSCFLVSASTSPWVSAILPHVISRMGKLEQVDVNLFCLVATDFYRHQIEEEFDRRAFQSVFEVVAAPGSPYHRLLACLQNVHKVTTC
# UniProt O08788: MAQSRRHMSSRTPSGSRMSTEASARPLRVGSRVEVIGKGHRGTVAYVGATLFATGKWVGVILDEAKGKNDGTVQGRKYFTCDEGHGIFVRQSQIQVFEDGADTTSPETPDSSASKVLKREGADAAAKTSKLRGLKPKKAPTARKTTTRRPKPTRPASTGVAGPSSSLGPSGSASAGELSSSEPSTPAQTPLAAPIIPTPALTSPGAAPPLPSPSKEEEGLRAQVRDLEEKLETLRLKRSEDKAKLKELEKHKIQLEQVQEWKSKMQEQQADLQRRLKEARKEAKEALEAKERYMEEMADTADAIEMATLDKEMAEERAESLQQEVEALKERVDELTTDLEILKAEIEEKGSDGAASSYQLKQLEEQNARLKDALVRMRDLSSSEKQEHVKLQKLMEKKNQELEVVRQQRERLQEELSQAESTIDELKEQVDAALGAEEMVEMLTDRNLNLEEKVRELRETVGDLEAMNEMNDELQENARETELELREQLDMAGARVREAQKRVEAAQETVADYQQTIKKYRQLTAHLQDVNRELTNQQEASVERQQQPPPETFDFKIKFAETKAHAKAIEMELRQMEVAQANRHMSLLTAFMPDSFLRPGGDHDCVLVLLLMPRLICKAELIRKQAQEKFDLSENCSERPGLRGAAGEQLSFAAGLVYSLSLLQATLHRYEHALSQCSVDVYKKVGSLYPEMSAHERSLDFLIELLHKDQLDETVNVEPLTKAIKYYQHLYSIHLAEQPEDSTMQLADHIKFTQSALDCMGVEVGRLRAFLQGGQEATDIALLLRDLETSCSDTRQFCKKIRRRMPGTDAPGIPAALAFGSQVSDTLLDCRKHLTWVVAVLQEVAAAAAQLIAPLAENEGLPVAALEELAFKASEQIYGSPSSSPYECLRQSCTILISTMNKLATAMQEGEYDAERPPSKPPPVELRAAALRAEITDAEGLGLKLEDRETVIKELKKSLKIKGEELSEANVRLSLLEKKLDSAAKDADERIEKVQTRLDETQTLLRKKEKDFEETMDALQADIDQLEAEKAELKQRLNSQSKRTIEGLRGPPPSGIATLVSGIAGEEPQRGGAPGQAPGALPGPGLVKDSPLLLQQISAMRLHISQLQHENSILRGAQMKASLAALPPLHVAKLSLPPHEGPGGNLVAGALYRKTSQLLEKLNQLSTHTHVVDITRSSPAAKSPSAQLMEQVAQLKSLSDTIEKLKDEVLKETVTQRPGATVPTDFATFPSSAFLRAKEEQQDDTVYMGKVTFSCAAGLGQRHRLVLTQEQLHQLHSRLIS
# B1: Disc1 (protein, UniProt Q811T9 1-852)
# chain: MQGGGPRGAPIHSPSHGADSGHGLPPAVAPQRRRLTRRPGYMRSTAGSGIGFLSPAVGMPHPSSAGLTGQQSQHSQSKAGQCGLDPGSHCQASLVGKPFLKSSLVPAVASEGHLHPAQRSMRKRPVHFAVHSKNDSRQSERLTGSFKPGDSGFWQELLSSDSFKSLAPSLDAPWNKGSRGLKTVKPLASPALNGPADIASLPGFQDTFTSSFSFIQLSLGAAGERGEAEGCLPSREAEPLHQRPQEMAAEASSSDRPHGDPRHLWTFSLHAAPGLADLAQVTRSSSRQSECGTVSSSSSDTGFSSQDASSAGGRGDQGGGWADAHGWHTLLREWEPMLQDYLLSNRRQLEVTSLILKLQKCQEKVVEDGDYDTAETLRQRLEELEQEKGRLSWALPSQQPALRSFLGYLAAQIQVALHGATQRAGSDDPEAPLEGQLRTTAQDSLPASITRRDWLIREKQRLQKEIEALQARMSALEAKEKRLSQELEEQEVLLRWPGCDLMALVAQMSPGQLQEVSKALGETLTSANQAPFQVEPPETLRSLRERTKSLNLAVRELTAQVCSGEKLCSSLRRRLSDLDTRLPALLEAKMLALSGSCFSTAKELTEEIWALSSEREGLEMFLGRLLALSSRNSRRLGIVKEDHLRCRQDLALQDAAHKTRMKANTVKCMEVLEGQLSSCRCPLLGRVWKADLETCQLLMQSLQLQEAGSSPHAEDEEQVHSTGEAAQTAALAVPRTPHPEEEKSPLQVLQEWDTHSALSPHCAAGPWKEDSHIVSAEVGEKCEAIGVKLLHLEDQLLGAMYSHDEALFQSLQGELQTVKETLQAMILQLQPTKEAGEASASYPTAGAQETEA
# Target: Huntingtin (mouse (endogenous in cerebral cortex)) (UniProt P42859)
# Assay: co-IP
row,Molecule,binding
1,dynactin subunit p150^Glued (from UniProt O08788 1-1281),binds
2,B1,binds
